The record followed here is PubChem BioAssay AID2685 (National Center for Advancing Translational Sciences (NCATS), 2010).

This assay is described as follows: qHTS Assay for Lipid Storage Modulators in Drosophila S3 Cells.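 On cell number change: cells counted by Cell Tracker Red CMTPX staining in the red channel.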 As to conditions: BODIPY lipid droplet fluorescence, 18-24 h; for cell number change: measured here: cell count max response, cells fed with added oleic acid. In outline:
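Drosophila S3 cells loaded with oleic acid (400 uM, as added) and compounds at several concentrations; lipid droplets imaged by 488-nm laser-scanning cytometry, 500–530 nm intensity and object ratio to cell channel. Percent activity normalized to 20 uM Triacsin C.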

The mark [1] stands for this setting: measured here: cell number channel AC50, cells fed with added oleic acid.
The mark [2] stands for this setting: measured here: lipid fluorescence (Fed channel) AC50, cells fed with added oleic acid.

The other results are listed elsewhere or left out. Further columns of the screen follow, without active or inactive calls. The list favours compounds with an active or inconclusive main result. Potencies come from curve fits of mixed quality, noted in brackets.

Broadly, the AC50 is the concentration giving half of the maximal activity seen. Read a low AC50 as greater potency. Regarding `O=C(N(Cc1ccccc1)c1ccccn1)C12CC3CC(CC(C3)C1)C2`, the cell number change is -27.8%. The half-maximal activity concentration (AC50) under setting [1] was 0.82 µM [falling, full curve, poor fit]. In addition, the AC50 under setting [2] was 0.164 µM [falling, full curve]. With `CN(C(=O)CSc1nnc(-c2ccccc2F)n1N)C1CCCCC1`, the cell number change was -18.7%.

Take `COc1ccc(C(CC(=O)c2ccc(C)cc2)C(C#N)C#N)cc1OC` (stereo not given): the cell number change was found to be 0.318%. Further, the AC50 under setting [2] was 29.1 µM [falling, single point]. Turning to `O=C(CNC(=O)c1ccc(Br)o1)Nc1cccc(S(=O)(=O)N2CCCC2)c1`, the cell number change is 1.13%. The AC50 under setting [1] was 0.0231 µM [falling, full curve, poor fit]. Further, the AC50 under setting [2] was 0.00461 µM [falling, full curve, poor fit]. With `CN(CC(=O)Nc1cccc(F)c1)C(=O)c1cccc2ccccc12`, the AC50 under setting [2] is 23.1 µM [falling, partial curve].

On to `CCN(CC)c1ccc(C(=S)NC2CCCCC2)cc1`, for which the cell number change was -26.8%. Besides, the half-maximal activity concentration (AC50) under setting [2] was 2.06 µM [falling, partial curve, poor fit].

Turning to `COc1ccc(C(=O)OCC(=O)Nc2ccc(F)c(F)c2)cc1OC`, the cell number change amounted to 110%. In addition, the AC50 under setting [1] is 5.8 µM [rising, full curve]. For the same compound, under setting [2], the AC50 is 18.4 µM [rising, partial curve]. In the case of `COc1cc(C(=O)Nn2cnnc2)ccc1OC(F)F`, the cell number change was 20.1%. Under setting [2], the concentration at half-maximal activity (AC50) is 18.4 µM [rising, single point].

As to `CC(C)NCCCCOc1ccc(Br)cc1Cl`, the cell number change was -9.23%. Same read-out and setting: as for `CCN1CCN(Cc2nc3c(c(=O)n(C)c(=O)n3C)n2C(C)C(C)=O)CC1` (stereo not given), the figure is -2.63%. As for `O=C(c1cccc(S(=O)(=O)N2CCOCC2)c1)N(CCc1ccccc1)Cc1ccccc1`, the cell number change is -4.02%. Further, the AC50 under setting [2] is 5.8 µM [falling, full curve]. As to `Cn1cccc1Cc1nnc(SCC(=O)N2CCCCCC2)n1CCc1ccccc1`, the cell number change was determined as 4.85%. Further, under setting [2], the AC50 is 6.51 µM [rising, single point].

For `COCC(C)NC(=O)CSc1nc2nn(-c3ccccc3)c(=O)c-2c2n1CCCCC2` (stereo not given), the cell number change amounted to 3.3%. Further, the AC50 under setting [1] was 0.00461 µM [falling, full curve, poor fit]. In the case of `Cc1cccc(C2C3=C(Nc4[nH]n(-c5ccccc5)c(=O)c42)c2ccccc2C3=O)c1` (stereo not given), the cell number change turned out to be 21.2%. As for `CNC(=O)CCCCC(=O)N/N=C/c1ccc(Cl)cc1Cl`, the cell number change was 18.2%. Moreover, the AC50 under setting [2] is 14.6 µM [rising, partial curve]. Take `COc1ccc(NC(=O)c2ccc(N3CCOCC3)nc2)cc1`: the cell number change came to 2.16%. `Cc1ccnc(NC(=O)CCC(=O)N(CC(=O)NCc2ccccc2)Cc2cccs2)c1`: the cell number change amounted to 23.5%. Moreover, under setting [2], the AC50 was 1.64 µM [rising, partial curve]. Turning to `CC1CCC(NC(=O)c2cc(S(=O)(=O)N3CCCCC3)ccc2N2CCOCC2)CC1` (stereo not given), the cell number change is -10%. For the same compound, under setting [2], the concentration at half-maximal activity (AC50) was 16.4 µM [falling, single point]. Consider `O=C(CN1C2CCCC1CC(NC(=O)c1ccccc1)C2)Nc1ccccc1C(F)(F)F` (stereo not given), for which the cell number change was -25%. The half-maximal activity concentration (AC50) under setting [2] is 35.5 µM [rising, single point]. `Cc1ccnn1CC(=O)N/N=C/c1ccc([N+](=O)[O-])s1`: the cell number change is -34.4%. The AC50 under setting [1] is 29.1 µM [falling, single point]. Also, the AC50 under setting [2] is 18.4 µM [falling, partial curve]. Turning to `COc1cc(/C=N/n2nnnc2N)ccc1OCc1c(C)no[n+]1[O-]`, the AC50 is 1.3 µM [falling, single point] under setting [1] and 7.31 µM [rising, partial curve, poor fit] under setting [2]. Take `CCCn1cnc2c(c1=O)c1nc3ccccc3nc1n2CCc1ccccc1`: the cell number change came to 87.3%. The AC50 under setting [1] was 0.326 µM [rising, full curve].

`Cc1ccc(NC(=O)CCCn2c(=O)[nH]c3ccsc3c2=O)cc1`: the cell number change amounted to 10.7%. Besides, the AC50 under setting [2] was 0.58 µM [rising, single point]. On to `CC(CN1C(C)CCCC1C)OC(=O)c1ccccc1Cl` (stereo not given), for which the cell number change was found to be 12.9%. Besides, the half-maximal activity concentration (AC50) under setting [1] was 0.411 µM [rising, full curve]. The AC50 under setting [2] was 0.58 µM [rising, full curve]. Take `COc1cccc(CC(NC(C)=O)C(=O)NC2CCN(S(=O)(=O)c3cccc4ccccc34)CC2)c1` (stereo not given): the cell number change is 4.97%. In the case of `COc1ccc(C(O)Cn2ccsc2=NC(C)=O)cc1` (stereo not given), the concentration at half-maximal activity (AC50) under setting [2] was 29.1 µM [rising, single point]. As to `CCOC(=O)C1=C(C)NC(C)=C(C(=O)OCC)C1c1cc2ccc(C)cc2[nH]c1=O`, the cell number change is -31.1%. Further, under setting [1], the concentration at half-maximal activity (AC50) was 23.1 µM [falling, single point].

Take `CC(C)c1nc2sc(C(=O)O)c(N)c2c2c1CCCC2`: the cell number change is -0.341%. Also, the concentration at half-maximal activity (AC50) under setting [2] was 0.461 µM [falling, single point]. With `CCOc1cc(S(=O)(=O)N2CCC(c3nc4ccccc4s3)CC2)c(OCC)cc1S(=O)(=O)N1CCCCC1`, the cell number change came out at 2.41%. As for `Cc1ccc(S(=O)(=O)Nc2cccc(C(=O)N3CCC(C(N)=O)CC3)c2)cc1`, the cell number change turned out to be 9.93%. The half-maximal activity concentration (AC50) under setting [2] is 0.58 µM [rising, full curve, poor fit]. Regarding `CCOc1cc2[nH]c(=S)n(C3CC3)c(=O)c2cc1OCC`, the cell number change was -7.09%. For `Cc1ccc(C(=O)NNC(=O)c2ccncc2)cc1S(=O)(=O)N1CCCCC1`, the cell number change came to 29.2%. In addition, the concentration at half-maximal activity (AC50) under setting [2] was 6.51 µM [rising, single point].

Consider `O=C(Cc1ccc(F)cc1)NCc1cccnc1`, for which the cell number change is -8.79%. With `COc1ccc(NC(=O)COC(=O)c2ccc(S(=O)(=O)N(C)c3ccccc3OC)cc2)cc1OC`, the cell number change was 60.9%. Under setting [2], the AC50 is 5.17 µM [falling, single point].

For `Cc1cccc(NC(=O)CN2CCc3cc4c(cc3C2)OCCCO4)c1`, the cell number change is -5.9%. The AC50 under setting [1] is 5.17 µM [rising, single point]. As for `CC(C)(C)Nc1nc(Nc2ccc([N+](=O)[O-])cc2)nc(NC(C)(C)C)n1`, the cell number change was 10.3%. In addition, the AC50 under setting [2] was 29.1 µM [rising, single point].

For the compound `COc1cc(OC)c(OC)cc1/C=C1\CCC(C2CCCC2)C1=O` (stereo not given), the cell number change is 56.1%. In addition, the AC50 under setting [1] is 14.6 µM [rising, partial curve, poor fit]. Also, under setting [2], the AC50 is 0.116 µM [rising, full curve, poor fit]. As to `O=C(CO/N=C1\CCCc2nonc21)Nc1ccccc1Cl`, the cell number change came out at 9.67%. Besides, the concentration at half-maximal activity (AC50) under setting [2] was 4.61 µM [rising, full curve, poor fit]. Consider `Nc1nccc(-c2cccs2)n1`, for which the cell number change is -64.8%. Moreover, under setting [1], the half-maximal activity concentration (AC50) was 6.51 µM [rising, partial curve, poor fit]. Regarding `C=CCN1C(=O)c2ccc(C(=O)NCC(c3ccccc3)N(C)C)cc2C1=O` (stereo not given), the cell number change is -16.9%. Moreover, the AC50 under setting [2] was 18.4 µM [falling, single point].
